Drawing on PubChem BioAssay AID330 (DTP/NCI, 2004), this text covers survivor count and T/C for 27 compounds.

Each structure is given as a SMILES string. The list does not hold the whole screen: it gathers tests that were run many times, whatever their T/C, doses with no T/C, and many T/C values between a quarter and a half above the control. Further doses and runs are listed elsewhere. T/C gives the treated animals as a percentage of the vehicle group. Some entries give survivors of the animals treated and no T/C: the source files T/C as zero there, which appears to mark a toxic dose or a test without result, not a measured value. Some survivor counts are full or nearly so, which does not show that the dose was tolerated: survival well below the control is almost never listed, so the zero probably covers shortened survival too. Counts of survivors are from the toxicity check (mostly the fifth day) where no day follows; animals may have died later. Schedule codes are those of the source, taken here to give the interval after Q, in days (D) or hours (H), and the number of doses after X. Where survival is the endpoint, this PubChem deposit counts one and a half times the control or more as active, and values a quarter to a half above the control carry no call in these data; other NCI protocols may use other cut-offs. Some doses were run more than once; their values stand side by side, smallest first. Some T/C values are followed by the survivors on the day toxicity was checked, most often the fifth; where none is given, no animal had died by that day.

The experiment concerns P388 leukemia ip, CD2F1 mice, survival T/C. The experiment can be described thus: NCI In Vivo Anticancer Drug Screen. Data for tumor model P388 Leukemia (intraperitoneal) in CD2F1 (CDF1) mice. As to conditions: T/C endpoint: median survival time, higher T/C = longer survival.
[1] abbreviates: dose: 400.0 mg/kg/injection, schedule: Q04DX003 (ip), vehicle: saline.
Setting [2] is: dose: 240.0 mg/kg/injection, schedule: Q01DX005 (ip), vehicle: saline with Tween-80.
Setting [3] is: dose: 200.0 mg/kg/injection, schedule: Q01DX005 (ip), vehicle: Klucel (hydroxypropylcellulose) (HPC).
Setting [4] is: dose: 100.0 mg/kg/injection, schedule: Q01DX005 (ip), vehicle: Klucel (hydroxypropylcellulose) (HPC).
Where [5] appears, read: dose: 60.0 mg/kg/injection, schedule: Q01DX005 (ip), vehicle: saline with Tween-80.
The mark [6] stands for this setting: dose: 50.0 mg/kg/injection, schedule: Q01DX009 (ip), vehicle: Klucel (hydroxypropylcellulose) (HPC).
Setting [7] is: dose: 100.0 mg/kg/injection, schedule: Q01DX009 (ip), vehicle: Klucel (hydroxypropylcellulose) (HPC).
The mark [8] stands for this setting: dose: 200.0 mg/kg/injection, schedule: Q01DX009 (ip), vehicle: Klucel (hydroxypropylcellulose) (HPC).
Setting [9] is: dose: 25.0 mg/kg/injection, schedule: Q01DX009 (ip), vehicle: Klucel (hydroxypropylcellulose) (HPC).
Setting [10] is: dose: 200.0 mg/kg/injection, schedule: Q01DX005 (ip), vehicle: saline with Tween-80.
Where [11] appears, read: dose: 50.0 mg/kg/injection, schedule: Q01DX005 (ip), vehicle: Klucel (hydroxypropylcellulose) (HPC).

On to `O=c1[nH]oc2c1CCNC2`, for which the survivor count under setting [1] was 1 of 6. With `CCOc1cccc(C=N)c1O`, the survivor count under setting [2] is recorded as 0 of 6.

As to `O=C(N/N=C/c1ccccn1)c1ccccc1[O-].O=C(N/N=C/c1ccccn1)c1ccccc1[O-].[Co+2]`, under setting [3], the survivor count is given as 0 of 6.

`NCCc1ccccc1`: the survivor count (dose: 100.0 mg/kg/injection, schedule: Q01DX009 (ip), vehicle: saline) was 5 of 6; the survivor count (dose: 200.0 mg/kg/injection, schedule: Q01DX009 (ip), vehicle: saline) is 0 of 6; the survivor count (dose: 400.0 mg/kg/injection, schedule: Q01DX009 (ip), vehicle: saline) is on record as 0 of 6; the survivor count (dose: 600.0 mg/kg/injection, schedule: Q01DX009 (ip), vehicle: saline) was 0 of 6. Regarding `C=C1C(=O)C23C(O)CC4C5(C)CCCC4(C(O)OC5)C2C(OC(C)=O)CC1C3O` (centres undefined), the T/C was 127 % of control (dose: 8.0 mg/kg/injection, schedule: Q01DX009 (ip), vehicle: other) and 132 % of control (dose: 32.0 mg/kg/injection, schedule: Q01DX009 (ip), vehicle: other). Regarding `CCCCCCCCCCCCCCCC[N+](C)(CCO)Cc1ccccc1` (centres undefined), the survivor count (dose: 25.0 mg/kg/injection, schedule: Q04DX002 (ip), vehicle: saline with Tween-80) was 5 of 6.

Consider `CC1(C)O[Te]2(OC1(C)C)OC(C)(C)C(C)(C)O2`, for which the survivor count runs as follows: (dose: 12.5 mg/kg/injection, schedule: Q01DX001 (ip), vehicle: saline with Tween-80) 3 of 6; (dose: 200.0 mg/kg/injection, schedule: Q01DX001 (ip), vehicle: saline with Tween-80) 2 of 6; (dose: 400.0 mg/kg/injection, schedule: Q01DX001 (ip), vehicle: saline with Tween-80) 0 of 6. On to `CC1(CO)CCCC1NCCNC1CCCC1(C)CO` (centres undefined), for which the survivor count under setting [2] is given as 0 of 6.

Consider `COc1cc([C@@H]2c3cc4c(c(OC)c3C[C@H]3COC(=O)[C@@H]32)OCO4)cc(OC)c1OC`, for which the survivor count is, setting by setting: under setting [4], 6 of 6; under setting [3], 3 of 6. For `C=C1C(=O)OC2C1C(OC(=O)/C(C)=C/C)CC1(C)C(=O)CCC(=C)C21` (centres undefined), under setting [4], the T/C was 125 % of control [5 of 6 alive].

Turning to `Cc1ccc([N+](=O)[O-])c2ccccc12`, the survivor count (dose: 400.0 mg/kg/injection, schedule: Q01DX009 (ip), vehicle: saline with Tween-80) is listed as 3 of 6. `COc1ccc2c(c1O)-c1c(O)c(OC)cc3c1[C@H](C2)[N+](C)(C)CC3`: the survivor count is on record as 0 of 6 (dose: 100.0 mg/kg/injection, schedule: Q04DX003 (ip), vehicle: saline); 0 of 6 (dose: 200.0 mg/kg/injection, schedule: Q04DX003 (ip), vehicle: saline); 0 of 6 under setting [1]. With `CCOc1ccc2[nH]c(=S)sc2c1`, the survivor count (dose: 400.0 mg/kg/injection, schedule: Q01DX009 (ip), vehicle: Klucel (hydroxypropylcellulose) (HPC)) was 5 of 6. In the case of `O=S(=O)([O-])[O-].OCCNCCNCC[OH2+].OCCNCCNCC[OH2+].[Ni+2]`, under “dose: 50.0 mg/kg/injection, schedule: Q01DX009 (ip), vehicle: saline”, the survivor count is on record as 6 of 6. Turning to `CN1Cc2c(cc(CN3CCCCC3)n2C)C(c2ccc(Br)cc2)C1` (centres undefined), the survivor count is 3 of 6 under setting [5]; 1 of 6 (dose: 120.0 mg/kg/injection, schedule: Q01DX005 (ip), vehicle: saline with Tween-80); 0 of 6 under setting [2].

In the case of `Cc1ccc(-c2cn3nc(-c4ccc5c(c4)OCO5)sc3n2)cc1`, the survivor count reads like this: under setting [5], 6 of 6; under setting [2], 6 of 6. As to `CN1CC2(CO)C(c3ccccc3)OC(c3ccccc3)C(CO)(C1)C2O` (centres undefined), the survivor count under setting [2] is on record as 0 of 6.

Consider `COc1ccc2nc(C)cc(N/N=C/c3cccnc3)c2c1`, for which the survivor count under setting [6] was 2 of 6, the survivor count under setting [7] is recorded as 0 of 6 and the survivor count under setting [8] is 0 of 6. As to `CCCCCCCCCCCCCCCCCCNCCC#N`, the survivor count under setting [9] is 6 of 6 and the survivor count under setting [8] is given as 6 of 6. Turning to `CCC1CN2CCC1CC2C(O)c1ccnc2ccc(OC)cc12` (centres undefined), the survivor count under setting [10] is 2 of 6.

Consider `O=C1[C@@H]2C3C=CC([C@H]4C(=O)N(CO)C(=O)[C@@H]34)[C@@H]2C(=O)N1CO`, for which the T/C under setting [9] is 132 % of control; the T/C under setting [6] is 127 and 140 % of control; the T/C under setting [7] is 137 and 144 % of control.

On to `COC(=O)c1c(-c2cc(OC)c(OC)cc2[N+](=O)[O-])cn(C)c1C`, for which, under setting [10], the survivor count is listed as 6 of 6.

For the compound `COc1ccc(C(C)N(C)C)cc1` (centres undefined), the survivor count is 0 of 6 (dose: 200.0 mg/kg/injection, schedule: Q01DX001 (ip), vehicle: other) and 0 of 6 (dose: 400.0 mg/kg/injection, schedule: Q01DX001 (ip), vehicle: other). With `Nc1c(/C=C/c2cc3ccc(C4=NCCN4)cc3[nH]2)[nH]c2cc(C3=NCCN3)ccc12`, the T/C runs as follows: under setting [11], 127 % of control; under setting [4], 142 % of control. In addition, the survivor count under setting [3] is listed as 0 of 6. `NC(CSC(c1ccccc1)(c1ccccc1)c1ccccc1)C(=O)OC(c1ccccc1)c1ccccc1` (centres undefined): the T/C was 127 % of control (dose: 100.0 mg/kg/injection, schedule: Q04DX003 (ip), vehicle: saline with Tween-80); 131 % of control (dose: 200.0 mg/kg/injection, schedule: Q04DX003 (ip), vehicle: saline with Tween-80); 136 % of control (dose: 264.0 mg/kg/injection, schedule: Q04DX003 (ip), vehicle: saline with Tween-80). On to `CCn1c(=O)c2[nH]c(C(F)(F)F)nc2n(CC)c1=O`, for which, under setting [7], the survivor count is 2 of 6. Regarding `O=[N+]([O-])c1ccc(CN2CCC(C(=S)Nc3ccccc3)=C2c2ccccc2)cc1`, under setting [11], the survivor count is recorded as 5 of 6.
